The experiment has as its target HA-tagged human SLX4 (N-terminally truncated) (human). Briefly: co-IP; HA-tagged ΔN SLX4 and 3x FLAG Vpr transiently coexpressed in 293T cells; lysed in RIPA buffer plus protease inhibitors in an ice-cold sonicator bath; immunoprecipitation with anti-HA affinity gel 1 h at 4 C, four washes; Western blot with anti-FLAG.

Results are given in words; binding and its absence hold for the method and conditions named. Binding seen in cells or lysates may run through a third protein. A result given as binding can be weak or reduced; the word gives no strength.

B1: HIV-1 N Vpr (consensus sequence) (protein)
chain: MERAPEDAGPQREPYNEWALELLEELKNEAVRHFPRIWLHGLGQHIYNTYGDTWEGVEAIIRILQQLLFIHYRIGCQHSRIGITPQRRRNGASRS
Regarding B1, the binding entry is recorded as “binds”.

Source of the values: article PMC5021806.
